From PubChem BioAssay AID1487 (National Center for Advancing Translational Sciences (NCATS), 2009) come the findings set out here.

The list shows a part of the results. Further columns of the screen follow, without active or inactive calls. Compounds called inactive in the main read-out are mostly missing here. The note in brackets gives the kind of curve behind each potency; many fits are weak.

The assay can be described thus: qHTS Assay for Modulators of Lamin A Splicing. To be noted: HeLa LMNA splicing GFP/RFP minigene ratio, 48 h. In a few lines: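 S3 HeLa cells stably expressing lamin A-EGFP splicing minigene plus DsRed2, 600 cells/well, 48 h compound exposure at 37C. Laser-scanning cytometry; analysed as GFP (500-530 nm)/RFP (575-640 nm) total intensity ratio; 0.5% DMSO vehicle.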
In general terms: Quantitative high-throughput screening tests each substance at several concentrations.

Where [1] appears, read: measured here: RFP viability control channel.
Where [2] appears, read: measured here: GFP splicing reporter channel.

As for `CCCn1c(N)c(Sc2ccccc2)c(=O)n(CCC)c1=O`, the AC50 under setting [1] is 12.6 µM [rising, single point].
In the case of `C(=C\CSc1nnnn1-c1ccccc1)/CSc1nnnn1-c1ccccc1`, the AC50 under setting [2] is 14.1 µM [rising, single point] and the AC50 under setting [1] is 12.6 µM [rising, single point].
In the case of `CCNc1ccc(Br)cc(C(=O)/C=C/c2ccc3c(c2)OCO3)c1=O`, the AC50 under setting [2] is 15.8 µM [falling, single point] and the AC50 under setting [1] is 35.5 µM [falling, single point].
In the case of `CC(C)Cn1c(N)c(C(=O)COC(=O)c2ccc3ccccc3n2)c(=O)n(C)c1=O`, the AC50 was 11.2 µM [rising, single point] under setting [2] and 22.4 µM [rising, single point] under setting [1].
Regarding `COc1ccc(-c2nnc(NC(=O)c3ccc(S(=O)(=O)N4COCC4(C)C)cc3)o2)cc1`, the AC50 under setting [1] was 5.01 µM [rising, partial curve].
On the same count and under the same terms, the value for `O=C(C1CCCN(S(=O)(=O)c2ccccc2)C1)N1CCCc2ccccc21` (stereo unspecified) was 10 µM [rising, partial curve].
In the case of `O=C1CCC(c2ccccc2)=NN1Cc1c(F)cccc1Cl`, the AC50 under setting [2] was 35.5 µM [falling, single point].
With `Oc1ccc(CN2CCc3ccccc3C2)c2cccnc12`, the AC50 under setting [1] is 10 µM [rising, partial curve].
For `Cc1ccc(-c2[nH]c3ccccc3c2SCCNC(=O)c2ccc(S(=O)(=O)N3CCOCC3)cc2)cc1`, the AC50 was 6.31 µM [rising, partial curve] under setting [2] and 11.2 µM [rising, partial curve] under setting [1].
With `CC(NC(=O)C(=O)NN=C1CCCC1)c1ccccc1` (stereo unspecified), the AC50 under setting [1] is 0.631 µM [falling, partial curve].
Take `COc1ccc(C(=O)Nc2ccccc2-c2ccccc2)cc1Cl`: under setting [1], the AC50 was 31.6 µM [rising, single point].
For the molecule `COc1ccccc1C1C2=C(N=c3s/c(=C/c4cccc(OCC(=O)O)c4)c(=O)n31)c1ccccc1CC2` (stereo unspecified), the AC50 under setting [1] was 0.1 µM [falling, full curve, poor fit].
Consider `O=C(CCC(=O)c1ccc(Oc2ccccc2)cc1)Nc1cccc(Cl)c1Cl`, for which, under setting [1], the AC50 is 35.5 µM [rising, single point].
Regarding `O=C(c1cn(CC(=O)N2CCCC2)c2ccccc12)C1CCCCC1`, the AC50 under setting [1] is 20 µM [rising, single point].
As to `CCOC(=O)C1=C(C)Nc2ccccc2N=C1N`, the AC50 under setting [1] is 0.0126 µM [falling, full curve, poor fit].
With `COc1ccc(F)cc1S(=O)(=O)N1CCN(Cc2ccc3c(c2)OCO3)CC1`, the AC50 under setting [1] was 12.6 µM [rising, single point].
Turning to `CCN1CCN(Cc2nc3cc(NC(=O)c4ccccc4[N+](=O)[O-])ccc3n2CC)CC1`, the AC50 under setting [2] is 1 µM [falling, full curve, poor fit].

In general, AC50 refers to the midpoint of the concentration-response curve, whichever way the signal moves.
